PubChem BioAssay AID1259425 | University of Nebraska Medical Center | 2018
This is a random part of about 14,000 deposited reagents. Not all columns of the deposit are shown. The record does not give: the time to read-out.

Aim: 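Find knockdowns that reproduce the gene expression pattern seen when KSR1 is lost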 (primary screen)
Cell system: HCT116 human colon cancer cells
Reagent: siRNA pool against human genes, 50 nM siRNA
Read-out: 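mRNA of six signature genes measured together by branched-DNA assay after 50 nM siRNA pool, blank removed, divided by geometric mean of two housekeeping genes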
Scale: BNIP3L mRNA: higher = more BNIP3L transcript after knockdown

AAK1: BNIP3L mRNA, set 1 = 0.429
STBD1: BNIP3L mRNA, set 1 = 0.142
CDC37L1: BNIP3L mRNA, set 1 = 0.085
AKAP4: BNIP3L mRNA, set 1 = 0.153
WASL: BNIP3L mRNA, set 1 = 0.093
LY6G6C: BNIP3L mRNA, set 1 = 0.0782
PRC1: BNIP3L mRNA, set 1 = 0.116
SLC7A14: BNIP3L mRNA, set 1 = 0.106
RBM26: BNIP3L mRNA, set 1 = 0.13
TENT4A: BNIP3L mRNA, set 1 = 0.0669
MYO1G: BNIP3L mRNA, set 1 = 0.1
PPP1R12C: BNIP3L mRNA, set 1 = 0.109
ZZEF1: BNIP3L mRNA, set 1 = 0.133
NEDD8: BNIP3L mRNA, set 1 = 0.0896

The list goes on; the last 3 above are carried over.
PPP1R12C: BNIP3L mRNA, set 1 = 0.109
ZZEF1: BNIP3L mRNA, set 1 = 0.133
NEDD8: BNIP3L mRNA, set 1 = 0.0896
FHIP2A: BNIP3L mRNA, set 1 = 0.098
TMCO6: BNIP3L mRNA, set 1 = 0.0704
MCHR2: BNIP3L mRNA, set 1 = 0.171
GRM3: BNIP3L mRNA, set 1 = 0.22
ATP2B2: BNIP3L mRNA, set 1 = 0.0861
PCDHGC3: BNIP3L mRNA, set 1 = 0.129
CPLANE1: BNIP3L mRNA, set 1 = 0.184
ZNF266: BNIP3L mRNA, set 1 = 0.175
PLXDC2: BNIP3L mRNA, set 1 = 0.139
SLC75A1: BNIP3L mRNA, set 1 = 0.339
SBNO1: BNIP3L mRNA, set 1 = 0.0482
LMO1: BNIP3L mRNA, set 1 = 0.115
GRID1: BNIP3L mRNA, set 1 = 0.102
EXOC7: BNIP3L mRNA, set 1 = 0.105
DCTN2: BNIP3L mRNA, set 1 = 0.079
XKR8: BNIP3L mRNA, set 1 = 0.142
P2RY6: BNIP3L mRNA, set 1 = 0.274
AUTS2: BNIP3L mRNA, set 1 = 0.0819
PRM1: BNIP3L mRNA, set 1 = 0.11
NBPF14: BNIP3L mRNA, set 1 = 0.114
HTR2A: BNIP3L mRNA, set 1 = 0.282
LRRC59: BNIP3L mRNA, set 1 = 0.107
